Hit rate of the full screen: of about 390,000 compounds, about 820 (0.21%) were called active. This list was built around the results that the source calls inconclusive (neither active nor inactive); the mix of calls is not that of the screen. Calls follow the shape of the dose curve; as a rule, active = well fitted inhibition curve with a large enough effect; inconclusive = small, poorly fitted or top-dose-only effect, or another doubt; inactive = no such curve, though single readings can be large or run the other way. Potencies beside an inconclusive call are fits to weak or partial responses and may not hold up.
Each compound was assayed against Histone acetyltransferase KAT2A (Homo sapiens) (UniProt Q92830) (assay: qHTS Assay for Inhibitors of GCN5L2). Conditions: GCN5L2 HAT assay, ThioGlo1 CoA-SH fluorescence; activity change, negative = inhibition: at 58.9 µM (top of the series) unless noted.
In short: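 Compounds, pin-transferred from DMSO stocks, meet 20nM GCN5L2 for 15 min before the reaction begins with H3(1-25) peptide (75uM) and acetyl-CoA (70uM). Thiol-reactive ThioGlo1 reports CoA release over 20 min at room temperature.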
% is scaled to controls: 0 for no effect and ±100 for the full control effect; potency is read from the fitted curve at half-maximal effect.

By UniProt entry, the sequences of proteins in these tests, tags left out.
UniProt Q92830, whole entry, looked up: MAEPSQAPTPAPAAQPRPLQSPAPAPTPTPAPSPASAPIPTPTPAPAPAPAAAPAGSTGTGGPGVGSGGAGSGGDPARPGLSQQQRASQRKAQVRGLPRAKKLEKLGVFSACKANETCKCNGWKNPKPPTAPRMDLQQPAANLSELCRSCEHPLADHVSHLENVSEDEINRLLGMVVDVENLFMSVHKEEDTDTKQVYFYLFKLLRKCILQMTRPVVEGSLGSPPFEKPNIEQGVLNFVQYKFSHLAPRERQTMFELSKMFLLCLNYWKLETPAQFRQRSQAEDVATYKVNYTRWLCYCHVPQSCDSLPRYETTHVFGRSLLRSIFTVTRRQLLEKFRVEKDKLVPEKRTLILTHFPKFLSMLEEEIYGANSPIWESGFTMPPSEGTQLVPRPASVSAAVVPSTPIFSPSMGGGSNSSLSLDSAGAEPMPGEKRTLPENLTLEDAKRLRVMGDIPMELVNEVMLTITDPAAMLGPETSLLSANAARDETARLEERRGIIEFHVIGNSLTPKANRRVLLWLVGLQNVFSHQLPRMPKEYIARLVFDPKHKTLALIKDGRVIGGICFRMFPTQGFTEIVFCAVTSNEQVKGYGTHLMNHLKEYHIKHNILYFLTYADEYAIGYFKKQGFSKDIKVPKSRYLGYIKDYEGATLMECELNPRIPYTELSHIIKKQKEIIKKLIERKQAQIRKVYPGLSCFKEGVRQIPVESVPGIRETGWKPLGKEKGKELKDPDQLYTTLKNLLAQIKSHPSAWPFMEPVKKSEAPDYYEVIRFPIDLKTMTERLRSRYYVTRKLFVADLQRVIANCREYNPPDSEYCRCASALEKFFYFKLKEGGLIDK

Compound	activity change, negative = inhibition	Potency
COc1cccc(C(c2c(N)[nH]c(=S)[nH]c2=O)c2c(N)[nH]c(=S)[nH]c2=O)c1	inactive: 16.2%	
c1cc(SC2CCCCC2)cc(-c2nc3cnccn3c2NC2CCCCC2)c1		inconclusive: 12.6 µM [inhibitor, partial curve]
Cc1ccc2c(=O)c3cccc(CC(=O)O)c3oc2c1C	inactive: -22.9%	
O=c1[nH]c2ccc(S(=O)(=O)N3CCCCC3)cc2s1		inconclusive: 39.8 µM [inhibitor, single point]
CCOc1ccc(C(=O)NCCN2CCCC2)cc1		inconclusive: 0.708 µM [inhibitor, partial curve, poor fit]
CCN1C(=NCc2ccccc2)N[C@@H](c2ccccc2)[C@H](C(=O)OC)[C@H]1C		inconclusive: 0.794 µM [inhibitor, single point]
Cc1cc(C)c(N=C2C(=O)Nc3ccccc32)c(C)c1		inconclusive: 3.16 µM [inhibitor, partial curve]
O=c1c(-c2cc(O)c(O)c(O)c2)coc2cc(O)c(O)c(O)c12		inconclusive: 35.5 µM [inhibitor, single point]
O=C(CNC(=O)c1ccco1)OC(C(=O)c1ccccc1)c1ccccc1 (centres undefined)		inconclusive: 39.8 µM [inhibitor, single point]
CSc1ncc(CN2CCC(C(=O)Nc3cccc(-c4cscn4)c3)CC2)cn1		inconclusive: 44.7 µM [inhibitor, partial curve, poor fit]
C1=C(c2ccccc2)Nc2nnnn2C1	inactive: -3.53%	
Cc1ccccc1C(=O)N1CCN(c2ccc(NC(=O)c3ccc4c(c3)OCO4)cc2)CC1		inconclusive: 39.8 µM [inhibitor, single point]
N#Cc1cccc(-c2nc3cnc(N4CCOCC4)nc3n(C3CC3)c2=O)c1	inactive: -9.7%	
O=C(Cn1nc(C(=O)O)c2ccccc2c1=O)c1c[nH]c2ccccc12		inconclusive: 25.1 µM [inhibitor, single point]
O=C1CSC(c2ccccc2)N1c1ccccc1F (centres undefined)		inconclusive: 20 µM [inhibitor, partial curve, poor fit]
O=c1cc(-c2ccc(F)cc2)[nH][nH]1	inactive: -4.57%	
N#Cc1ccc2c(c1)C[C@]1(c3ccsc3)Oc3c(c(=O)oc4ccc(F)cc34)C2O1		inconclusive: 0.141 µM [inhibitor, single point]
CC(=O)c1cc2c(s1)-c1cc(F)ccc1OC2		inconclusive: 31.6 µM [inhibitor, single point]
Clc1ccccc1C1SCC2Nc3ccccc3CN21 (centres undefined)		inconclusive: 3.16 µM [inhibitor, partial curve]

Quoted at random: two entries already listed.
Compound	activity change, negative = inhibition	Potency
CSc1ncc(CN2CCC(C(=O)Nc3cccc(-c4cscn4)c3)CC2)cn1		inconclusive: 44.7 µM [inhibitor, partial curve, poor fit]
O=C(CNC(=O)c1ccco1)OC(C(=O)c1ccccc1)c1ccccc1 (centres undefined)		inconclusive: 39.8 µM [inhibitor, single point]

From PubChem BioAssay AID504327 (National Center for Advancing Translational Sciences (NCATS), 2011)
